Assay results: PubChem BioAssay AID1347076 (National Center for Advancing Translational Sciences (NCATS), 2019)
About 13,000 (3.2%) of roughly 400,000 compounds were called active. This list was built around the results that the source calls inconclusive (neither active nor inactive); the mix of calls is not that of the screen. Calls follow the shape of the dose curve; as a rule, active = well fitted cell-killing curve with a large enough effect; inconclusive = small, poorly fitted or top-dose-only effect, or effect the other way; inactive = flat fitted curve, though single readings scatter. Potencies of inconclusive entries are doubtful fits and often do not repeat.

assay: qHTS assay for MDR1-selective chemotherapeutics: Primary screen using the drug-selected MDR subline cells KB-V1; settings: KB-V1 MDR cells viability, CellTiter-Glo, 72 h; activity change, negative = cytotoxicity: at 46.1 µM (top of the series); also: nearly all actives have a fitted effect of over 60% in size
Outline: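 KB-V1 MDR subline cells in DMEM (phenol-red free, 10% FBS) exposed to compounds in qHTS concentration series for 72 h at 37 degrees C. Viability read by CellTiter-Glo luminescence; concentration-effect curves fitted after normalization and correction.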
% is scaled to controls: 0 for no effect and ±100 for the full control effect; potency is read from the fitted curve at half-maximal effect.

SMILES	Potency	activity change, negative = cytotoxicity
Cc1ccccc1C(=O)Oc1ccc(Cl)cc1C(=S)N1CCOCC1	inconclusive: 14.6 µM [cytotoxic, partial curve]	–
Cc1ccc(CNc2nc3ccc(C)cc3n3nnnc23)cc1	inconclusive: 16.4 µM [rising, partial curve, poor fit]	–
COC(=O)c1[nH]c2ccc(F)cc2c1NC(=O)CCN1CCN(Cc2ccc3c(c2)OCO3)CC1	inconclusive: 7.31 µM [cytotoxic, partial curve]	–
Cc1ccc(C)c(OCC(=O)NC2CCCCCC2)c1	active: 13 µM	–
O=C(Nc1cccc(-c2ccc(N3CCCCC3)nn2)c1)c1ccco1	inconclusive: 7.31 µM [cytotoxic, partial curve]	–
CNc1ccc(C=C2c3ccccc3-c3ccccc32)cc1	inconclusive: 20.6 µM [cytotoxic, single point]	–
Cc1ccc(C(=O)NCCSCc2ccccc2)cc1[N+](=O)[O-]	active: 20.6 µM	–
CCC(C(=O)NC1CCCC1)N(C(=O)Cn1nnc(-c2ccc(C)o2)n1)C(C)(C)C (stereo not drawn)	active: 1.16 µM	–
C/C(=N\NC(=O)c1ccccc1)c1ccccc1F	–	inactive: 12.1%
O=C(NC1CCCC1)C(c1ccncc1)N(Cc1ccccc1)C(=O)c1ccc(-c2ccccc2)[nH]1 (stereo not drawn)	inconclusive: 20.6 µM [cytotoxic, single point]	–
O=C(O)c1cccc(C(=O)O)c1Br	–	inactive: -0.933%
NC(=O)c1ccccc1OCCOc1ccc(Br)cc1	inconclusive: 18.4 µM [cytotoxic, single point]	–
O=C(Nc1ccc(Cc2ccncc2)cc1)c1ccc(S(=O)(=O)N2CCCC2)cc1	inconclusive: 29.1 µM [cytotoxic, single point]	–
CC(=O)Nc1nc(N(C)C)nc(N(C)C)n1	inconclusive: 9.2 µM [rising, partial curve]	–
O=C(CCS(=O)(=O)c1cccc2nonc12)Nc1ccc(Br)cc1	inconclusive: 29.1 µM [cytotoxic, partial curve, poor fit]	–
CNCCCNC(=O)c1ccc(/C=N/O)nc1	–	inactive: 0%
Cc1ccc(CCNC(=O)c2c(C)nn(-c3ccc(F)cc3)c2-n2cccc2)cc1	active: 5.8 µM	–
CCn1c(=O)c(C)nn2c3ccccc3nc12	inconclusive: 20.6 µM [cytotoxic, single point]	–
CCN(CC)CCN1CCN(c2cnc(C)cn2)CC1	–	inactive: 3.18%
Cc1cnc(C2OCCO2)c2cccc([N+](=O)[O-])c12	–	inactive: 8.66%
CCOc1ccccc1N1CCN(C(=O)CCCN2C(=O)c3cccc4cccc(c34)C2=O)CC1	inconclusive: 16.4 µM [cytotoxic, partial curve]	–
CC1CCCCN1C(=O)CSc1nnc(-c2c[nH]c3ccccc23)o1 (stereo not drawn)	inconclusive: 20.6 µM [cytotoxic, single point]	–
CCS(=O)(=O)N1CCN(S(=O)(=O)c2ccc3ccccc3c2)CC1	inconclusive: 0.184 µM [cytotoxic, full curve]	–
C/C=C/c1ccc(OCC(O)CN2CCCCCCC2)c(OC)c1 (stereo not drawn)	inconclusive: 5.8 µM [cytotoxic, full curve]	–
O=c1c2c(-c3cccs3)csc2ncn1/N=C/c1ccc(OC(F)F)cc1	active: 14.6 µM	–

SMILES	Potency	activity change, negative = cytotoxicity
CCOc1ccccc1NC(=O)NC1Cc2ccccc2C1	inconclusive: 16.4 µM [rising, single point]	–
COc1cc(OC)cc(C(=O)NCCOc2ccccc2)c1	inconclusive: 16.4 µM [cytotoxic, single point]	–
S=C(c1ccc(-c2ccc(Br)cc2)o1)N1CCOCC1	inconclusive: 25.9 µM [cytotoxic, single point]	–
COc1ccc(Nc2nc3ccccc3n3cnnc23)cc1Cl	inconclusive: 25.9 µM [rising, partial curve, poor fit]	–
N#C/C(=C(/O)Cc1ccccc1)P(=O)(c1ccccc1)c1ccccc1	inconclusive: 20.6 µM [rising, partial curve, poor fit]	–
O=C(Nc1cccc(F)c1)c1cc(S(=O)(=O)N2CCOCC2)cs1	inconclusive: 23.1 µM [cytotoxic, single point]	–
Cc1ccc2[nH]c(=O)c(CN(Cc3ccco3)Cc3nnnn3Cc3ccco3)cc2c1	–	inactive: -1.94%
CCc1ccc(CNC(=O)CCS(=O)(=O)Cc2ccc(C)cc2)cc1	–	inactive: -4.72%
CCn1cc(C(=O)N2CCN(c3ccc(OC)cc3)CC2)c(=O)c2cc(S(=O)(=O)N3CCOCC3)ccc21	inconclusive: 29.1 µM [rising, single point]	–
Cc1ccc2nc(C3CCCCC3)c(Cc3ccsc3)n2c1	active: 16.4 µM	–
COc1ccccc1-c1nnc2sc(-c3cc4ccccc4o3)nn12	inconclusive: 0.517 µM [cytotoxic, full curve]	–
O=C(NCC(c1ccco1)N1CCN(c2ccccc2)CC1)C(=O)NC1CC1 (stereo not drawn)	inconclusive: 11.6 µM [cytotoxic, partial curve, poor fit]	–
CCOc1ccc(CCNC(=O)CCn2ccc3cc(S(=O)(=O)N4CCCC4)ccc32)cc1	–	inactive: -16.3%
CS(=O)(=O)c1ccc(C(=O)Nc2nc(-c3ccco3)c(-c3ccco3)s2)cc1	inconclusive: 20.6 µM [cytotoxic, single point]	–
N#CCc1ccc(NS(=O)(=O)c2ccc(C3CCCCC3)cc2)cc1	inconclusive: 9.2 µM [cytotoxic, partial curve]	–
CCCCCC(=O)N1C[C@H](O)[C@@H](n2cc(COC(=O)c3ccccc3)nn2)C[C@@H]1c1ccccc1	–	inactive: -5.98%
CCC1CCc2c(sc(N)c2C(N)=O)C1 (stereo not drawn)	inconclusive: 11.6 µM [cytotoxic, partial curve]	–
Cc1ccc(N(C)S(=O)(=O)c2cccc(C(=O)OCC(=O)N3CCCC(C)C3)c2)cc1 (stereo not drawn)	active: 20.6 µM	–
COc1ccc2[nH]cc(CCN=C(NC(=O)c3ccccc3C)Nc3nc(C)cc(C)n3)c2c1	inconclusive: 14.6 µM [cytotoxic, partial curve]	–
NC(=S)N1CCCc2ccccc21	–	inactive: 12%
O=C(NCCCN1CCN(c2ccccc2F)CC1)c1ccc2nc(N3CCCCC3)sc2c1	–	inactive: -0.445%
CN(CC(=O)Nc1cccc(F)c1)C(=O)c1ccc2c(c1)CC(c1ccccc1)OC2=O (stereo not drawn)	inconclusive: 29.1 µM [cytotoxic, single point]	–
CCN(CC)C(=O)c1cc2c(=O)c3cc(F)ccc3oc2nc1C	inconclusive: 29.1 µM [rising, single point]	–
CCSc1nc2c([nH]1)c(=O)n(C)c(=S)n2C	–	inactive: 0%
CC(=O)c1ccc(Oc2cc(-c3ccccc3)nc(-c3ccccc3)n2)cc1	inconclusive: 16.4 µM [cytotoxic, single point]	–

SMILES	Potency	activity change, negative = cytotoxicity
CSc1ccc(CN2CCC(C)(Oc3ccc4ccccc4c3)C2)cc1 (stereo not drawn)	inconclusive: 18.4 µM [cytotoxic, partial curve, poor fit]	–
OCCNc1c2ccccc2nc2c(F)c(F)c(F)c(F)c12	inconclusive: 32.6 µM [cytotoxic, single point]	–
O=C1c2cccc3cccc(c23)C(=O)N1CCN1CCN(CC(O)COc2ccccc2)CC1 (stereo not drawn)	–	inactive: -7.91%
Cc1onc(-c2ccccc2)c1C(=O)Nc1cccc(C#N)c1	inconclusive: 29.1 µM [cytotoxic, single point]	–
CC(C)CC(=O)N1C/C=C\C[C@@H](c2ccc(Cl)cc2)N(Cc2ccc(Cl)cc2)C(=O)[C@@H]1Cc1ccccc1	inconclusive: 16.4 µM [cytotoxic, single point]	–
CC(C)CNC(=S)NC(=O)c1ccc(F)cc1	–	inactive: -24.7%
COC(=O)c1c(NC(=O)COC(=O)c2ccc(O)cc2)sc2c1CCCCC2	–	inactive: -5.63%
CC(C)CC(N)c1csc(Nc2cnccn2)n1 (stereo not drawn)	–	inactive: 4.98%
CC1(C)CC(=O)C=C(c2ccc(-c3cnn(Cc4ccccc4)c3)cc2)C1=O	–	inactive: -22.4%
CC(=O)Nc1ccc(C(=O)Nc2cccc(S(=O)(=O)N(C)c3ccccc3)c2)cc1	–	inactive: 3.67%
O=C(NCc1ccco1)C1CCN(C(=O)c2cc3sccc3n2Cc2ccc(F)cc2)CC1	inconclusive: 18.4 µM [cytotoxic, partial curve, poor fit]	–
Cc1c(C(=O)NCc2ccc3c(c2)OCO3)sc2nc(-c3ccccc3)cn12	–	inactive: 18.7%
O=C(c1ccc2nc3ccc(Cl)cc3c(=O)n2c1)N1CCOCC1	inconclusive: 29.1 µM [cytotoxic, partial curve, poor fit]	–
Cc1onc(-c2c(F)cccc2Cl)c1C(=O)Nc1nnc(C(F)(F)F)s1	–	inactive: -16.3%
CCOC(=O)c1c(C)n(C)c2c1cc(OC(C)=O)c1ccccc12	–	inactive: 8.19%
CCCCCCN1C2=NCCN2c2ccccc21	inconclusive: 20.6 µM [cytotoxic, single point]	–
CC(=O)C1=C(C)NC(SCC(=O)c2ccc(F)cc2)=C(C#N)C1CC(C)C (stereo not drawn)	inconclusive: 13 µM [cytotoxic, partial curve, poor fit]	–
Cc1nn(-c2ccccc2)c(C)c1/C=N/NC(=O)c1cccs1	active: 20.6 µM	–
Cc1cc2c(cc3c(SCc4ccccc4Cl)nnc(C)n32)o1	–	inactive: -8.11%
CC(C)c1ccc(NC(=O)N(CCc2nc3ccccc3[nH]2)C2CCCC2)cc1	inconclusive: 18.4 µM [cytotoxic, single point]	–
Cn1c(-c2ccc(C=O)s2)nc2c3ccccc3c3ccccc3c21	inconclusive: 20.6 µM [cytotoxic, single point]	–
Cc1ccc(NS(=O)(=O)c2ccc(NC(=O)N3CCCCC3)cc2)cc1	inconclusive: 16.4 µM [cytotoxic, partial curve]	–
N#C/C(=C(/O)c1cccs1)c1nc2ccccc2[nH]1	inconclusive: 23.1 µM [cytotoxic, single point]	–

4 compounds drawn at random from those above:
SMILES	Potency	activity change, negative = cytotoxicity
Cc1cc2c(cc3c(SCc4ccccc4Cl)nnc(C)n32)o1	–	inactive: -8.11%
CCCCCCN1C2=NCCN2c2ccccc21	inconclusive: 20.6 µM [cytotoxic, single point]	–
CCOC(=O)c1c(C)n(C)c2c1cc(OC(C)=O)c1ccccc12	–	inactive: 8.19%
CC(=O)Nc1ccc(C(=O)Nc2cccc(S(=O)(=O)N(C)c3ccccc3)c2)cc1	–	inactive: 3.67%
